# Library screen at single concentrations

Source: ChEMBL document CHEMBL3988442, “University of Dundee, Small-Polar-MMV Screening Library” (2021).

Mtb cholesterol medium: 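Growth of Mycobacterium tuberculosis over 4 days (cholesterol / DPPC medium with tyloxapol); the read-out is not stated. Compounds at 50 µM. The record gives no direction; compounds that gave an IC50 in retests scored well above the rest, so higher reads as more growth inhibition. Of about 69,000 compounds tested this way, about 370 (0.54%) reached 50% or more in at least one test.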
Mtb glucose medium: 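Phenotypic screen: M. tuberculosis growth, glucose 7H9 medium, 3 days; the read-out is not stated. Compounds at 50 µM. Direction is inferred from retests: higher values go with more growth inhibition. Size under these conditions: about 69,000 compounds, about 760 of them at 50% or above in at least one test.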

Each number is a percent effect as filed.
The controls that fix the scale are not given in the record; negative values are as filed.
This is an unselected part of the compounds tested.
Two or more numbers in one place are separate tests of the same structure; such repeats can differ widely.

structure	Mtb cholesterol medium	Mtb glucose medium
Cc1ccc(S(=O)(=O)NCc2cnn(C)c2)c(F)c1	12.75	3.5
CC(=O)NCC(=O)N1CCC2(CC1)NC(=O)CC2c1cccnc1.O=C(O)C(F)(F)F (configuration not stated)	-18.35	-5.061
CC(=O)NCC(=O)N1Cc2cc(-c3cc[nH]n3)ccc2C1c1cnco1 (configuration not stated)	9.321	5.325 and -4.594
CC(C)N1CCCC(CN(C)c2ccc(Cn3ccnc3)cn2)C1 (configuration not stated)	4.855 and -2.069	-2.179 and 3.577
CCOCC(O)CN1CCN(C(=O)c2cccc3[nH]ncc23)CC1 (configuration not stated)	-12.71	-11.2
Clc1ccc(OCCCN2CCOC(Cn3cncn3)C2)cc1 (configuration not stated)	-10.11	-1.662
CCOc1ccc2cc(C(=O)N3CCn4c(CC)nnc4C3)[nH]c2c1	5.572	16.43
CC(C)c1nnc(CN2CCC3(CC2)Nc2ccccc2NC3=O)o1	-32.47	-28.26
O=C(Nc1cccn(Cc2ccc(F)cc2)c1=O)c1csnn1	3.628	1.461
COc1ccc(-c2noc(Cn3cnc(C)c3)n2)c(OC)c1OC	-3.745 and -3.056	-0.2338
CC(=O)NCCNC(=O)Nc1cc(C(C)(C)C)sc1C#N	4.538 and 6.779	25.28
COCC1CN(Cc2ccc(C)s2)Cc2nnn(C)c21.O=C(O)C(F)(F)F (configuration not stated)	4.341	15.85
O=C(C1CC1)N1CCC2(CCN2Cc2ccc(F)cc2)C1.O=C(O)C(F)(F)F (configuration not stated)	21.86	1.139
CCC(=O)N1CCN(C(=O)Nc2ccccc2-c2cccs2)CC1	7.876	-15.11
CC(=O)NCCNC(=O)c1cc(C)ccc1SC1CCCC1	2.847	-4.228
CC1(C(=O)NC2CCCC2)CCCN(c2cnccn2)C1 (configuration not stated)	4.325	-13.91
CCn1nc2c(cc1=O)CN(CC(=O)Nc1nccs1)CC2	7.233	-9.375 and 0.6978
CN(Cc1nnc(C2CC2)o1)Cc1ccccc1-c1ccccc1	42.75	69.55 and 45.52
CCNC(c1ccc(C(C)C)cc1)c1cccnc1 (configuration not stated)	4.008	11.73
O=C1NCC[C@]12CN(Cc1ccco1)C[C@H]2c1ccccc1	-8.42	4.784 and 8.049
O=C(c1[nH]nc(C2CC2)c1Cl)N1CCN(C2CC2)CC1	12.16	4.8
COCCOc1ncccc1CNC(=O)N1CCOCC1	-2.982	-7.429 and 1.144
c1cnc2ccc(C[C@@H]3CC[C@H](CN4CCCOCC4)O3)cc2c1	7.267	-4.862
CC(C)c1cc(NC(=O)CN2CCCC2Cn2cncn2)on1 (configuration not stated)	-8.985	-9.632
CCN1CCN(Cc2nc(Cc3ccccc3)n[nH]2)CC1	-8.77	4.658 and 0.5468
CCCn1ccnc1CN1CCCC(O)(CN2CCCC2)C1 (configuration not stated)	-39.14	-7.567
Clc1cccc(-c2cccc(N3CCC(NC4CCOCC4)CC3)c2)c1	80.29	89.02
CSCc1cc(F)ccc1CNCc1cccnc1	1.17	-1.139
CCc1nc(CC(=O)N2CCn3c(C)nnc3C2)cs1	-13.2	-4.399
O=C(O)C(F)(F)F.O=C(O)C(F)(F)F.[H][C@]12CCN(S(=O)(=O)CC)CC[C@@]1([H])S(=O)(=O)CCN2Cc1cccnc1	-9.154	-7.331
O=C(c1cncc2ccccc12)N1CCC[C@@H]1CO	5.332	8.602
COCCc1noc(CN2CCCC2c2noc(C3CC3)n2)n1 (configuration not stated)	-16.93	-24.7
CC(C)N(C)Cc1cc(=O)n2c(n1)CN(C(=O)c1cnccn1)CCC2	-5.7	-2.892
Cc1nsc(NCc2ccc(S(=O)(=O)N(C)C(C)C)cc2)n1	-15.94	-26.63
OC1COCCN(Cc2cc(-c3ccccc3OC(F)(F)F)no2)C1 (configuration not stated)	1.617	-37.51
Cn1c(NC(=O)CCS(=O)(=O)C2CCCC2)nc2cc(Cl)ccc21	3.295	19.99
O=C(O)C(F)(F)F.[H][C@@]12CN(C(=O)c3ccoc3C)C[C@]1([H])OCCN2C(C)C	8.022	-10.41
CN(CC1(C)COC1)C(=O)c1cc(-c2ccnn2C)nc2ccccc12	-11.75 and 7.419	26.44
N#CCCNC(=O)c1ccn(-c2ccc3ccccn23)n1	-1.729	-5.316
CCn1cnnc1CNC(=O)N(C)Cc1cccc(Cl)c1Cl	-3.322	-14.19 and -1.087
CC(=O)Nc1ccc(CN2CCCC(c3cc4ncccc4[nH]3)C2)cc1 (configuration not stated)	4.881 and -3.235	-15.7
[H][C@]12CC[C@]([H])(CN(Cc3cccc(C(=O)Nc4ccnn4C)c3)C1)N2	4.105	15.85
c1ccc(-c2nc(CCNCc3cccnc3)co2)cc1	4.346 and -1.059	-0.8217
[H][C@@]12CN(C(=O)C3CC=CC3)C[C@]1([H])C(=O)N(Cc1cccc(C)n1)C2	-6.111	-0.2054
Cc1cc(C)cc(N(C)S(=O)(=O)c2cc3c(c(C(=O)O)c2)OCCO3)c1	-8.826	-1.301 and 0.6153
Cl.O=C(NCC(F)(F)F)C1=NOC2(CCCNC2)C1 (configuration not stated)	-20.34	-10.24
Cc1cnn(CC(C)NCC(=O)NCCOc2ccccc2)c1 (configuration not stated)	-9.213	-12.72
Cc1ccc2c(c1)C1(CCNCC1)CC2NC1CC1.Cl.Cl (configuration not stated)	-0.00495	-12.59
Cc1n[nH]c(C2CN(C(=O)c3cnc[nH]3)CCO2)n1 (configuration not stated)	-12.64	-23.23
CN(CC(N)=O)S(=O)(=O)c1ccc(F)cc1F	11.6 and -4.154	21.56
CC(=O)N1C[C@H](NS(=O)(=O)N2CCOCC2)[C@@H](c2ccc(C)o2)C1	-0.1922 and 1.57	-9.862
CC(CCN1CCCn2nc(CNS(C)(=O)=O)cc2C1)c1ccccc1 (configuration not stated)	-57.85	-18.67
COc1ccc(C(=O)N2C[C@@H](O)[C@H](NCc3cnc(C)cn3)C2)cc1	-17.69	-21.3
Cc1ccc(NC2CCN(C(=O)c3ccoc3C)CC2)nn1	9.264	12.23
Cc1cnn(Cc2ccc(NC(=O)N3CCCCC3CO)cc2)c1 (configuration not stated)	-23.05	-27.63
CC(=O)N1CCCN(C(=O)NCCOc2ccc3c(c2)CCC3)CC1	-0.141	6.479
Cc1nn(C)c(N2CCOCC2)c1CNC(C)c1ccco1 (configuration not stated)	-17.92	-15.4 and -3.899
CC(C)c1nnc2n1CCN(C(=O)c1ccc(-n3cnnc3)cc1)C2	74.67	-21.18
CN(C)Cc1ccnc(C2CCCN2Cc2ccc3ncccc3c2)n1 (configuration not stated)	5.045	34.87
CCC(NC(=O)CN(C)Cc1ccc(C)o1)c1ccc(Br)cc1 (configuration not stated)	-20.04	5.693
CC1CCN(C(=O)Cn2nc(Br)nc2Br)CC1	19.55	1.521 and 31.72
CS(=O)(=O)C1=C(O)C(=O)N(c2ccccc2)C1c1ccccc1 (configuration not stated)	23.45	21.5
Cn1cc(C2CCCN2C(=O)CS(=O)(=O)C2CCCC2)cn1 (configuration not stated)	0.429	13.48
COc1ccccc1CNC(=O)CNc1ccccc1C(C)=O	1.92	18.23
COCc1ncc(CN(Cc2ccncc2)Cc2ccc(C)s2)cn1	-7.206	-8.984
C[C@H]1CN(C(=O)c2cscn2)C[C@@]12CCN(c1ccsc1)C2=O	-0.5487 and -2.232	-23.79
CCc1cc(NC2CCOCC2)n2nc(C)c(C)c2n1	-3.251	-13.82
CC(=O)NS(=O)(=O)c1ccc2c(c1)N(C)CCC2	-13.33	29.68
O=C(Cn1cc(I)cn1)Nc1cccnc1	2.555	10.32 and -2.033
Cc1noc(C)c1CN(C)C(C)c1cccs1 (configuration not stated)	-12.94	24.04
O=C(c1coc(COc2cccc3cnccc23)n1)N1CCSCC1	-1.62 and 39.96	-19.45 and 0.9077
O=C(c1ccc[nH]1)N1CC2(CCN(c3ncccn3)C2)C1	-16.51	-18.51 and -6.685
Cc1ccc(C(C(=O)NCCN2CCC(CO)CC2)N(C)C)cc1 (configuration not stated)	-11.35	-36.83
CC(NC(=O)NCc1cccc(CN2CCCC2)c1)c1nccs1 (configuration not stated)	12.77	31.87
CNC(=O)c1ccc(C2CN(C(=O)c3scnc3C)CCO2)nc1 (configuration not stated)	9.803	15.07
[H][C@@]12CN(c3ccccn3)C[C@]1([H])OCCN2CC(=O)N(C)C	5.004	-6.478 and -9.766
COc1cc2c(cc1OC)S(=O)(=O)N(Cc1ccccc1C)C2=O	-15.89	-1.86
O=C(O)C(F)(F)F.[H][C@@]12CN(C(=O)C3(C#N)CC3)C[C@]1([H])C(=O)N(Cc1csc(C)n1)C2	-23.68	-1.708

The first 8 entries again:

* Cc1ccc(S(=O)(=O)NCc2cnn(C)c2)c(F)c1 : Mtb cholesterol medium: 12.75%; Mtb glucose medium: 3.5%
* CC(=O)NCC(=O)N1CCC2(CC1)NC(=O)CC2c1cccnc1.O=C(O)C(F)(F)F (configuration not stated) : Mtb cholesterol medium: -18.35%; Mtb glucose medium: -5.061%
* CC(=O)NCC(=O)N1Cc2cc(-c3cc[nH]n3)ccc2C1c1cnco1 (configuration not stated) : Mtb cholesterol medium: 9.321%; Mtb glucose medium: 5.325% and -4.594%
* CC(C)N1CCCC(CN(C)c2ccc(Cn3ccnc3)cn2)C1 (configuration not stated) : Mtb cholesterol medium: 4.855% and -2.069%; Mtb glucose medium: -2.179% and 3.577%
* CCOCC(O)CN1CCN(C(=O)c2cccc3[nH]ncc23)CC1 (configuration not stated) : Mtb cholesterol medium: -12.71%; Mtb glucose medium: -11.2%
* Clc1ccc(OCCCN2CCOC(Cn3cncn3)C2)cc1 (configuration not stated) : Mtb cholesterol medium: -10.11%; Mtb glucose medium: -1.662%
* CCOc1ccc2cc(C(=O)N3CCn4c(CC)nnc4C3)[nH]c2c1 : Mtb cholesterol medium: 5.572%; Mtb glucose medium: 16.43%
* CC(C)c1nnc(CN2CCC3(CC2)Nc2ccccc2NC3=O)o1 : Mtb cholesterol medium: -32.47%; Mtb glucose medium: -28.26%